Data taken from publication PMC11277202.
These are yes or no findings as the source states them, for the method shown. In cells and extracts the contact can be indirect. Some results given as binding are weak or reduced against the parent protein; the word gives no strength.

The chains behind the UniProt entries cited, without tags or fusion partners.
UniProt Q9JIF0: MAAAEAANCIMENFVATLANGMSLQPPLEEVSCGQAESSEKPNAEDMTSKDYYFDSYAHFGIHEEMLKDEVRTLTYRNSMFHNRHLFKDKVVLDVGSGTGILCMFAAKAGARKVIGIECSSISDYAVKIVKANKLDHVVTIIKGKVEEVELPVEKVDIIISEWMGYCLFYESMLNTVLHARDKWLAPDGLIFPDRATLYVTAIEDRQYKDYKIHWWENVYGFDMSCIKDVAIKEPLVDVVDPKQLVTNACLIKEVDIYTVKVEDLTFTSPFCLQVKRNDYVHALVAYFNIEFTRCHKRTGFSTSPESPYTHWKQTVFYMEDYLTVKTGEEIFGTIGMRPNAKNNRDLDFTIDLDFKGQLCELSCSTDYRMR
UniProt O35732: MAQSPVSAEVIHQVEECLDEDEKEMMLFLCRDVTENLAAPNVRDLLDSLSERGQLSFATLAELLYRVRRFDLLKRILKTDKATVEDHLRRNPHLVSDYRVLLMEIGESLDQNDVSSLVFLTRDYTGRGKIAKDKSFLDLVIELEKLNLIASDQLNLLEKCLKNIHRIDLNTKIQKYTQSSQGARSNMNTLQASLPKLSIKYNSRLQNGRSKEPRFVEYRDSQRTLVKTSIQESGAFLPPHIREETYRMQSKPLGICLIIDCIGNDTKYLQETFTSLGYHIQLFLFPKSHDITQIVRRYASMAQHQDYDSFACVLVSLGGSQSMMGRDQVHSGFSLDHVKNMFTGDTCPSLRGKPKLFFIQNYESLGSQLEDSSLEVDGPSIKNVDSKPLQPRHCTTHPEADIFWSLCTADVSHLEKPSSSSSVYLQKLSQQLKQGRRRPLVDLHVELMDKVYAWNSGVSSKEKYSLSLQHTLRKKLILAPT

Target: PRMT1 with Myc tag, expressed from the adenovirus Ad-PRMT1 in mouse primary hepatocytes (UniProt Q9JIF0)
Experiment: co-IP; lysate of mouse primary hepatocytes infected by Ad-PRMT1 (IP RIPA buffer lacking SDS); immunoprecipitation with Myc-tag antibodies and Protein A/G beads at 4 °C overnight, blot for Myc and CFLAR; IgG as control

Q: Which binding does the source give for “Caspase 8 and FADD-like apoptosis regulator (CFLAR), endogenous in mouse primary hepatocytes (from UniProt O35732 1-481)” here?
A: binds
